PMC7819943, “Rice protein-binding microarrays: a tool to detect cis-acting elements near promoter regions in rice”
This is one part of the list.

By UniProt entry, the sequences of proteins in these tests, tags left out.
UniProt Q0JBA9, entry or part of it: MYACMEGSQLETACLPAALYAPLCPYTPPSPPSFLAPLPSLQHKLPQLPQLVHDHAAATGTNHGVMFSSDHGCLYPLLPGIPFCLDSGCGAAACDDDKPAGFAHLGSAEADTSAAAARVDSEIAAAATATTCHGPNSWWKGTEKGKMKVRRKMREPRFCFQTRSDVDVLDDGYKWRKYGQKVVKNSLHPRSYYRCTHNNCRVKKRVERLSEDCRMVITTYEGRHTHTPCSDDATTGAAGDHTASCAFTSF

These sequences were tested against OsWRKY34 (Oryza sativa, UniProt Q0JBA9 1-250) (assay: protein-binding microarray (RPBM); PBS, 2% BSA, 51.3 ng/ul salmon testes DNA, 50 uM zinc acetate, 200 nM TF, 25 C, 1 h; high values mean tight binding). Settings: protein: recombinant; tags: N-terminal polyhistidine and DsRed monomer fusion (pET32a); label: CyDye5-dUTP incorporated in the synthesized complementary strand; 3' TTTTT single-stranded linker to array surface; dsDNA, one strand shown.
Outline: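 The binding signal for each feature is its fluorescence intensity in arbitrary units. An Axon 4000B scanner was used to read a custom Agilent array that had been made double-stranded with Cy5-dUTP primer extension, blocked with 2% BSA, incubated at 25 °C for 1 h with 200 nM protein in PBS, 2% BSA, salmon testes DNA and 50 µM zinc acetate, and washed. The protein was an N-terminal polyhistidine–DsRed transcription factor fusion from E. coli BL21-CodonPlus, purified on Ni–NTA.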
For “AATCTTATCTCTATCTCATCTCTCTCCTCTGCCTTATCTCCGGAGTCACCTAGTGCAG”, the binding signal was 13100 fluorescence intensity (a.u.). For “GTGCTGGAGGGAGGGAACGGGGAACGTGGCAACTGACACGCGGAGTCACCTAGTGCAG”, the binding signal was 9030 fluorescence intensity (a.u.). With “TGGTCTGATCTTTTATATGCCACTGAAAATTGGCTCTTTCCGGAGTCACCTAGTGCAG” the binding signal was 8410 fluorescence intensity (a.u.). “ACCAGCCACCTGCCGTTGCAGATTCTACGCGACTCATCGTCGGAGTCACCTAGTGCAG” was tested, and the binding signal was 9690 fluorescence intensity (a.u.). With “TCTTACCCTTGGGACTCATACATCACAATCTCGAATTTAGCGGAGTCACCTAGTGCAG” the binding signal was 8840 fluorescence intensity (a.u.). With “GGAATTCAGGGCGTGGTGTAGTGTAAGTAACTTTAAAATTCGGAGTCACCTAGTGCAG” the binding signal was 8890 fluorescence intensity (a.u.). With “CCCTGTACCTGCTTCGCTGTTTTCCCCAACTTGCCAGCTTCGGAGTCACCTAGTGCAG” the binding signal was 9720 fluorescence intensity (a.u.). For “GCCCGGTCTGACCGGTCACATGAAATAACAGCAGTATCCTCGGAGTCACCTAGTGCAG”, the binding signal was 8420 fluorescence intensity (a.u.). With “TCATTGCATTTGCTTCTTCTTCCACCTGAGCGCGCGCCGCCGGAGTCACCTAGTGCAG” the binding signal was 8580 fluorescence intensity (a.u.). With “GGCGGGGCAGACGGAGGCCGACGGCTGCAGCGGGCTGGGGCGGAGTCACCTAGTGCAG” the binding signal was 9010 fluorescence intensity (a.u.). “AATTTGCATTCTATTTGGTCCTTCATTATTTTTTATTCATCGGAGTCACCTAGTGCAG” was tested, and the binding signal was 9540 fluorescence intensity (a.u.). For “CTTTTCTCCTTCGGCTATAGTGTCACTGTCCTCGCCTTCTCGGAGTCACCTAGTGCAG”, the binding signal was 15700 fluorescence intensity (a.u.). “TTGGTACTACAAGCAGATGCAGTTTTCGTTTCTTACTTTTCGGAGTCACCTAGTGCAG” was tested, and the binding signal was 9260 fluorescence intensity (a.u.). With “CACTGCATTGCTTTACTCACCAATCTCACGATATGGATCTCGGAGTCACCTAGTGCAG” the binding signal was 8650 fluorescence intensity (a.u.). For “TATTCTTCGTTTTTCGCGTGCACGTTTTTCAATCTGCTAGCGGAGTCACCTAGTGCAG”, the binding signal was 9210 fluorescence intensity (a.u.). For “TCGCGCCGCTCTTATATTACGGCGCGCCGCGCTCACCTCGCGGAGTCACCTAGTGCAG”, the binding signal was 8960 fluorescence intensity (a.u.). For “ACCACCTACTCTCTCTCTCTCTCTCTCTCATCTCCTGCCTCGGAGTCACCTAGTGCAG”, the binding signal was 12600 fluorescence intensity (a.u.). In the case of “CTCTCGTAAGATTCACCTACTCTTCTCTCGTCAAATTAACCGGAGTCACCTAGTGCAG”, the binding signal is reported as 9980 fluorescence intensity (a.u.). “GTGCTTTAATCAGTAATTTTGCAATTGCTTTTGAATTTCACGGAGTCACCTAGTGCAG” was tested, and the binding signal was 8090 fluorescence intensity (a.u.). For “TGCACCGTTTTTGTGCGAACATTTACTCCTTTATCCATTACGGAGTCACCTAGTGCAG”, the binding signal was 8420 fluorescence intensity (a.u.). “CCCGACAATCTCTCTCCCACCCCACCCCTTTCTCGTTTCGCGGAGTCACCTAGTGCAG” was tested, and the binding signal was 10300 fluorescence intensity (a.u.). For “TCAGCTAGCGAAATGTGAAATCGTAGCCGCTCGCGTTGACCGGAGTCACCTAGTGCAG”, the binding signal was 15900 fluorescence intensity (a.u.). With “TATTTCCAAAATCTCAATGCCACTCATTTTCATATTGGTTCGGAGTCACCTAGTGCAG” the binding signal was 8050 fluorescence intensity (a.u.). For “ACTGATATGTGGGTCCCATGGGTTTTATTATTTTTTCGGACGGAGTCACCTAGTGCAG”, the binding signal was 9400 fluorescence intensity (a.u.). In the case of “CCACCGCCCCGCCATGGACACCTCGCGCCGCTCCGCACAACGGAGTCACCTAGTGCAG”, the binding signal is reported as 8590 fluorescence intensity (a.u.). “TGGTGGGTGCGAGTTGGGAAAGGCGAGAGGGAGGGAGATGCGGAGTCACCTAGTGCAG” was tested, and the binding signal was 11700 fluorescence intensity (a.u.). With “CGGGAGTATATGTGATGTTGTTCTTTTTGTCATTTCAAGACGGAGTCACCTAGTGCAG” the binding signal was 12700 fluorescence intensity (a.u.). With “TTTCAATGTAGAACTCTATTCATCCTTTCTCATGTGAAACCGGAGTCACCTAGTGCAG” the binding signal was 8250 fluorescence intensity (a.u.). “TTTTCTAAGCTTCAGTTTTCTTGTTTTTCTATTTTGCTTTCGGAGTCACCTAGTGCAG” was tested, and the binding signal was 9430 fluorescence intensity (a.u.). “CAATTCGCACCAAACCGACCGCCACCGCCGCACCACCACCCGGAGTCACCTAGTGCAG” was tested, and the binding signal was 13700 fluorescence intensity (a.u.). In the case of “ACCTTTTCCGGTTCATAATTGCCCGGCTAGCCGCCGGGAGCGGAGTCACCTAGTGCAG”, the binding signal is reported as 8580 fluorescence intensity (a.u.). “CACCACCGTCTGCTATTGCCAAAGCCACCCTGTTGCACACCGGAGTCACCTAGTGCAG” was tested, and the binding signal was 8720 fluorescence intensity (a.u.). For “ATGCAGGCCTTAGTTTCCCTAGTTACCCTGGTGTTCCTGTCGGAGTCACCTAGTGCAG”, the binding signal was 8040 fluorescence intensity (a.u.). In the case of “AATACCCTCACCTATACGCGCACTGTCATTTCTTCCTTGCCGGAGTCACCTAGTGCAG”, the binding signal is reported as 10200 fluorescence intensity (a.u.). For “CGTACTCGTCGATAGCATTTCTTGGATTTGGGTGTTTGTACGGAGTCACCTAGTGCAG”, the binding signal was 9270 fluorescence intensity (a.u.). With “TCTTTCATACGCTTGTTCCATCAAGTTAATCTGCTGCTTACGGAGTCACCTAGTGCAG” the binding signal was 8520 fluorescence intensity (a.u.). In the case of “CTCGATCGCCCGCTACCCGCACGCCGCCTTTTCGTCCCGGCGGAGTCACCTAGTGCAG”, the binding signal is reported as 13100 fluorescence intensity (a.u.). “TCCTCCTCGCCGCCCGGCGAATCCCGCGCCTCCTCGCTTCCGGAGTCACCTAGTGCAG” was tested, and the binding signal was 9070 fluorescence intensity (a.u.). For “TTCGTTTCAAAATATTTGACACCGTTGACTTTTTAGCACACGGAGTCACCTAGTGCAG”, the binding signal was 25700 fluorescence intensity (a.u.). In the case of “TGATACGTCGTCCTTATTTGAGTTAGTTTTTAAGTTTGTTCGGAGTCACCTAGTGCAG”, the binding signal is reported as 9860 fluorescence intensity (a.u.). With “TTCAGATTTTTGTTTCCAAGGGGTCCACTGCCAGTGAAAGCGGAGTCACCTAGTGCAG” the binding signal was 8080 fluorescence intensity (a.u.). For “TTCCAGACCTCATCCCATTTTCTTCCGTACACGCTTTCACCGGAGTCACCTAGTGCAG”, the binding signal was 11800 fluorescence intensity (a.u.).
